We go through 1 substance from article PMC5706888.

This assay addresses T1, HA-tagged UL21 of bovine herpesvirus 1 (Bovine herpesvirus 1 (strain IBRV HB06)) (UniProt K4P3K8).
T1 sequence: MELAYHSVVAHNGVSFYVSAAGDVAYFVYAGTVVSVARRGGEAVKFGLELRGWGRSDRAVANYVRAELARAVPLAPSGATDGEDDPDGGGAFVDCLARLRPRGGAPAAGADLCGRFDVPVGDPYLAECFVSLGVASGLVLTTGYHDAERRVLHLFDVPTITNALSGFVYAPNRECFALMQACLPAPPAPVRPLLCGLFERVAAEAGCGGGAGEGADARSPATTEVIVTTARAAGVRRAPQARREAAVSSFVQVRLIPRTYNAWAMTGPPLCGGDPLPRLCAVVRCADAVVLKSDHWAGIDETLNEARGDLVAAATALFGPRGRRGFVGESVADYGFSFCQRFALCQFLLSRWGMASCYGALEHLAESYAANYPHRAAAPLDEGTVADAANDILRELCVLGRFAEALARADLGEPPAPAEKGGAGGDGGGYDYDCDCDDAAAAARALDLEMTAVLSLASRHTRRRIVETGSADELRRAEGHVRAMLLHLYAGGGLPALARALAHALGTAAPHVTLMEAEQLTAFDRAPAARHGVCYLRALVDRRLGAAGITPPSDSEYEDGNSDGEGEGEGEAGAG
In words: affinity purification with mass spectrometry; lysates of MDBK cells infected with vBoHV-1-UL21-HA or wild-type BoHV-1 (MOI 3, 18 hpi) incubated with anti-HA monoclonal antibody magnetic agarose beads for 5 to 6 h at 4°C; five washes; SDS-PAGE, silver staining, excised band analysed by LC-MS.

These are yes or no findings as the source states them, for the method shown. Binding seen in cells or lysates may run through a third protein. Here binding means that the protein was enriched with, or labelled near, the bait; the list need not be complete. Where a sequence is shown, tags or fusion partners need not be part of it.

As for UL16 of bovine herpesvirus 1, the binding entry is “binds”.
